Laboratory results from PubChem BioAssay AID504467 (National Center for Advancing Translational Sciences (NCATS), 2011).
Hit rate of the full screen: of about 330,000 compounds, about 7,700 (2.3%) were called active. This list was built around the results that the source calls inconclusive (neither active nor inactive); the mix of calls is not that of the screen. The call rests on the fitted dose curve; in most records, active means well fitted inhibition curve with a large enough effect; inconclusive means small, poorly fitted or top-dose-only effect, or effect the other way; inactive means flat fitted curve, though single readings scatter. Where the call is inconclusive, the potency comes from a doubtful curve fit.

Experiment: qHTS screen for small molecules that inhibit ELG1-dependent DNA repair in human embryonic kidney (HEK293T) cells expressing luciferase-tagged ELG1; further: nearly all actives have a fitted effect of over 55% in size
Details: HEK293T ELG1-luciferase reporter, luminescence, 16 h, DNA damage induced by 5-fluorouridine; activity change, negative = inhibition: at 46.1 µM (top of the series)
Method in brief: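 Quantitative HTS, concentration-response format. 2,000 cells/well co-treated with 5-fluorouridine and compound, 16 hr in 5% CO2 at 37 °C; ONE-Glo luminescence read after 30 min.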
On the % scale 0 is the no-effect control and ±100 the full control effect; potency means the concentration at half of the fitted maximal effect.

SMILES | Potency | activity change, negative = inhibition
C=CCC[C@@H](Cc1ccc(F)cc1)C(=O)OC[C@@H](C)NC(=O)[C@@H](CC=C)CC(=O)N[C@H](CO)Cc1ccccc1 | inconclusive: 29.1 µM [inhibitor, single point] | –
NC(=O)COC(=O)c1ccc2noc(-c3ccccc3)c2c1 | inconclusive: 7.3 µM [activator, partial curve] | –
Oc1cccc(C(=S)N2CCCCC2)c1 | inconclusive: 32.6 µM [activator, partial curve, poor fit] | –
COc1ccc(OC)c(NC(=O)COC(=O)[C@H](Cc2ccccc2)NC(=O)c2ccco2)c1 | – | inactive: 19.7%
CSc1nc(-c2ccc(Cl)cc2)nn1S(=O)(=O)c1ccc(Cl)cc1 | inconclusive: 14.6 µM [activator, partial curve] | –
Cc1ccc(SCC(=O)N2CC(C)OC(C)C2)cc1 (stereo unspecified) | inconclusive: 18.4 µM [activator, partial curve, poor fit] | –
N#CCCN1CCCc2cc(N=Nc3ccc(C(F)(F)F)cc3)ccc21 | inconclusive: 14.6 µM [activator, partial curve] | –
CC1CCN(C2=NC(=O)/C(=C/c3ccccc3F)S2)CC1 | inconclusive: 9.2 µM [activator, partial curve] | –
COc1ccccc1NC(=O)Nc1nc(CC(=O)Nc2cccc(F)c2)cs1 | inconclusive: 23.1 µM [inhibitor, single point] | –
COc1ccc(C(=O)/C=C/Nc2ccc([N+](=O)[O-])cc2C)cc1OC | inconclusive: 6.51 µM [activator, partial curve, poor fit] | –
Oc1c(Br)cc(Br)cc1/C=N/N1CCN(Cc2ccccc2)CC1 | inconclusive: 29.1 µM [activator, partial curve, poor fit] | –
Cc1cc(=O)n(CC(=O)O)c2ccccc12 | inconclusive: 8.2 µM [activator, partial curve, poor fit] | –
Cc1cccc(NC(=O)CN2C(=O)N/C(=C/c3ccc(C)s3)C2=O)c1 | inconclusive: 20.6 µM [activator, single point] | –
CCN1CCN(CCCNC(=O)c2cc3c(=O)oc4ccc(C)cc4c3s2)CC1 | inconclusive: 16.4 µM [activator, partial curve, poor fit] | –
COc1ccccc1OCc1ccc(C(=O)N2CCN(C(=O)c3ccco3)CC2)cc1 | inconclusive: 23.1 µM [inhibitor, partial curve] | –
C[C@@H]1CN([C@H](C)CO)C(=O)c2cccc(NC(=O)Nc3ccc(F)cc3)c2O[C@H]1CN(C)C(=O)Nc1ccc(C(F)(F)F)cc1 | active: 6.51 µM | –
C[C@@]12C(=O)Nc3cc(F)c(F)cc3C(=O)N1[C@H]1c3cc(Cl)ccc3OC[C@@H]1[C@@H]2c1ccccc1 | inconclusive: 29.1 µM [inhibitor, single point] | –
NC(=O)CC(NC(=O)c1cccc(Br)c1)c1ccc(N2CCC(N3CCCC3)CC2)c([N+](=O)[O-])c1 (stereo unspecified) | – | inactive: 0.0564%
CCOc1cc(/C=C2\N=C3CCCCCN3C2=O)ccc1O | inconclusive: 16.4 µM [activator, partial curve] | –
CC(C)(C)OC(=O)C[C@@H]1C/C=C\C[C@H](CC(=O)N(CCO)Cc2ccccc2)C(=O)NC[C@@H](c2ccccc2)OC1=O | – | inactive: -16.9%
CCCCCc1ccc(S(=O)(=O)NCCc2ccncc2)cc1 | inconclusive: 10.3 µM [inhibitor, partial curve, poor fit] | –
Cn1ccnc1C(O)c1ccc(OCc2ccccc2)cc1 (stereo unspecified) | inconclusive: 16.4 µM [activator, single point] | –

SMILES | Potency | activity change, negative = inhibition
CCC(=O)OCC(=O)N=c1sccn1Cc1ccccc1Cl | – | inactive: 14.2%
CCOc1ccc2oc(C(=O)NC(C)(C)CC)c(C)c2c1 | inconclusive: 20.6 µM [activator, partial curve] | –
CCn1nc(C(=O)OCC(=O)N2CC(=O)Nc3ccccc32)c2ccccc2c1=O | – | inactive: -2.74%
Cc1cc(C)nc(SCc2ccc(C(=O)N/N=C/c3ccco3)cc2)n1 | – | inactive: 8.69%
O=C(c1cc(-c2cccs2)on1)N1CCCCC1 | inconclusive: 20.6 µM [activator, partial curve] | –
Cn1cc(/C=N/n2cnc3scc(-c4ccccc4)c3c2=O)c2ccccc21 | inconclusive: 9.2 µM [inhibitor, partial curve, poor fit] | –
COCC(=O)Nc1ccc(OCc2ccccc2)cc1 | inconclusive: 20.6 µM [activator, partial curve] | –
CCOC(=O)CSC1=NC(=O)/C(=C/c2ccc(Br)cc2)S1 | inconclusive: 20.6 µM [activator, partial curve] | –
N#CC1=C(N)Oc2c(oc(CO)cc2=O)C1c1ccccc1[N+](=O)[O-] (stereo unspecified) | – | inactive: -13.9%
CCOc1ccccc1C1CC(c2ccc(Br)cc2)Nc2nc(N)nn21 (stereo unspecified) | inconclusive: 29.1 µM [inhibitor, single point] | –
CCC1CCC2(CC1)NNC(=S)NN2 | inconclusive: 29.1 µM [activator, single point] | –
CC(=O)c1cccc(NC(=O)c2ccc3c(c2)C(=O)N(Cc2cccnc2)C3=O)c1 | inconclusive: 16.4 µM [activator, partial curve, poor fit] | –
COC(=O)c1c(NC(=O)CN2CCN(S(=O)(=O)c3ccccc3[N+](=O)[O-])CC2)sc2c1CCC(C)C2 (stereo unspecified) | inconclusive: 4.11 µM [inhibitor, partial curve, poor fit] | –
CCCNc1c(NS(=O)(=O)c2c(F)c(F)c(F)c(F)c2F)c(=O)oc2ccccc12 | – | inactive: -13.4%
CC(C(=O)NC1CCCCCC1)c1ccc([N+](=O)[O-])cc1 (stereo unspecified) | – | inactive: 4.09%
Cc1cccc(C2NC(=O)c3c(sc(C)c3C)N2)c1O (stereo unspecified) | – | inactive: 7.53%
COc1ccc(C(=O)COC(=O)c2ccccc2C(=O)N(C)c2ccccc2)c(OC)c1 | inconclusive: 20.6 µM [activator, single point] | –
COc1ccc2[nH]c3c(c2c1)CCN1C(=O)N([C@@H](C)C(=O)NC2CCCC2)C(=O)[C@]31C | inconclusive: 0.651 µM [activator, single point] | –
C/C=C/C(=O)Nc1ccc(N2CCN(c3ccc(C(F)(F)F)cn3)CC2)nc1 | – | inactive: -9.39%
CC1CC(C)CN(C(=O)c2ccc(N3CC4CC(C3)c3cccc(=O)n3C4)c([N+](=O)[O-])c2)C1 (stereo unspecified) | inconclusive: 23.1 µM [inhibitor, single point] | –
Cc1ccc(/C(N)=N/OC(=O)CSc2ccccc2)cc1 | inconclusive: 7.3 µM [activator, partial curve] | –
Cc1cccc(CN2CCN(CC(=O)O)C2=O)c1 | inconclusive: 0.326 µM [activator, partial curve, poor fit] | –

Fetched by compound from above (4):
SMILES | Potency | activity change, negative = inhibition
CC(C(=O)NC1CCCCCC1)c1ccc([N+](=O)[O-])cc1 (stereo unspecified) | – | inactive: 4.09%
CC(=O)c1cccc(NC(=O)c2ccc3c(c2)C(=O)N(Cc2cccnc2)C3=O)c1 | inconclusive: 16.4 µM [activator, partial curve, poor fit] | –
CCOc1ccc2oc(C(=O)NC(C)(C)CC)c(C)c2c1 | inconclusive: 20.6 µM [activator, partial curve] | –
CCOC(=O)CSC1=NC(=O)/C(=C/c2ccc(Br)cc2)S1 | inconclusive: 20.6 µM [activator, partial curve] | –

Next entries

SMILES | Potency | activity change, negative = inhibition
Cc1ccccc1C(=O)N/N=C/c1cccc2ccccc12 | inconclusive: 18.3 µM [activator, single point] | –
CN1C(=O)/C(=C2\SC(N)=NC2=O)c2ccccc21 | – | inactive: -5.37%
N#C/C(=C(/O)CSc1ccccc1C(=O)O)c1nc2ccccc2s1 | inconclusive: 23.1 µM [activator, partial curve, poor fit] | –
S=c1[nH]nc(-c2cccnc2)n1/N=C/c1ccccc1 | inconclusive: 18.3 µM [activator, single point] | –
CC12C=CC(=O)C=C1CCC1C3CCC(O)(C(=O)CO)C3(C)CC3OC312 (stereo unspecified) | – | inactive: 13.6%
Cc1cccc2c1OCC/C2=N\NC(=O)COc1ccccc1Cl | inconclusive: 2.31 µM [activator, full curve] | –
Cc1ccc2cc(CCNC(=O)c3cccs3)c(=O)[nH]c2c1C | inconclusive: 5.17 µM [activator, partial curve] | –
COc1ccc2nc(SCC(=O)NC3CCCCC3C)[nH]c2c1 (stereo unspecified) | – | inactive: -19.1%
CC(C)N(C(=O)[C@H]1C[C@H](CC(=O)NCc2cccc(C(F)(F)F)c2)C(=O)N2CCc3c([nH]c4cc(-c5ccco5)ccc34)[C@]12C)C(C)C | – | inactive: -22.1%
O=C(CSc1ncnc2nc[nH]c12)c1ccc2ccccc2c1 | inconclusive: 23.1 µM [inhibitor, partial curve, poor fit] | –
COc1ccccc1N1CCN(S(=O)(=O)CCNC(=O)c2cc(OC)c(OC)c(OC)c2)CC1 | inconclusive: 29.1 µM [inhibitor, single point] | –
O=C(Nc1cccc(Cl)c1)Nc1nc(-c2ccccc2)cs1 | inconclusive: 29.1 µM [activator, single point] | –
CCN(CC)CCNC(=O)c1ccc(NC(=O)c2cc(-c3ccncc3)nc3ccccc23)cc1 | inconclusive: 3.55 µM [inhibitor, partial curve, poor fit] | –
CCOC(=O)C1=C(COC(=O)/C=C/c2ccccc2Cl)NC(=O)NC1C (stereo unspecified) | inconclusive: 20.6 µM [activator, partial curve, poor fit] | –
COc1ccc(CCNC(=O)Cn2nnc(-c3ccc(N4CCOCC4)cc3)n2)cc1OC | inconclusive: 4.11 µM [activator, full curve] | –
O=C(CSc1ccc2ccccc2n1)Nc1nsc(-c2ccc(Cl)cc2)n1 | – | inactive: -0.916%
CCOc1ccccc1NC(=O)CN1CCC(NC(=O)Nc2ccccc2)CC1 | – | inactive: -26.5%
COc1ccc2ccccc2c1C1CC(=O)N2CN(C)CSC2=C1C#N (stereo unspecified) | – | inactive: -7.78%
CCn1nc(C)c(/C=N/NC(=O)c2c[nH]c3ccccc23)c1C | inconclusive: 16.4 µM [activator, partial curve] | –
CCOC(=O)/C(C#N)=C/c1ccc(N2CCCCC2)cc1 | inconclusive: 23.1 µM [activator, partial curve] | –
Nc1ccc(C(=O)O)cc1S(=O)(=O)O | – | inactive: 2.34%
O=C(NCc1ccc2c(c1)OCO2)C(c1ccco1)N(C(=O)c1csnn1)c1ccccc1 (stereo unspecified) | inconclusive: 20.6 µM [inhibitor, single point] | –
